Measured values published in PubChem BioAssay AID2685 (National Center for Advancing Translational Sciences (NCATS), 2010).
Some of the results follow. The main result of the screen is listed elsewhere. These columns were measured beside it and carry no call. Most of these compounds were active or inconclusive in the main read-out, so they are no random draw. Potencies come from curve fits of mixed quality, noted in brackets.

Test: qHTS Assay for Lipid Storage Modulators in Drosophila S3 Cells;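 for cell number change: cells counted by Cell Tracker Red CMTPX staining in the red channel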
Conditions: BODIPY lipid droplet fluorescence, 18-24 h; for cell number change: measured here: cell count max response, cells fed with added oleic acid
Procedure, shortened: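 Laser-scanning cytometry quantifies lipid droplet accumulation (500–530 nm total intensity; droplet/cell object ratio) in oleic acid-fed (400 uM added) Drosophila S3 cells treated with a concentration series. 20 uM Triacsin C defined 100% inhibition.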

[1] = measured here: lipid fluorescence (Fed channel) AC50, cells fed with added oleic acid
[2] = measured here: cell number channel AC50, cells fed with added oleic acid

For `Cc1ccccc1C(=O)NC(C)c1ccc2c(c1)CCCC2` (stereo unspecified), the cell number change was 8.62%.

In the case of `O=C(N/N=C/C(Cl)=C/c1ccc([N+](=O)[O-])cc1)C(=O)Nc1cccc(C(=O)O)c1`, the cell number change is reported as -10.8% and the AC50 [1] is reported as 0.146 µM [falling, full curve, poor fit].

In the case of `COc1cc(OC)cc(C(=O)N[C@H](C(=O)OCC(N)=O)C(C)C)c1`, the cell number change is reported as -45.5% and the AC50 [2] is reported as 18.4 µM [falling, single point].

With `O=C(CSc1nnc(CN2CCCCC2)n1-c1ccccc1)c1ccc2c(c1)OCO2` the cell number change was 24.3% and the AC50 [1] was 29.1 µM [rising, partial curve, poor fit].

Work on `C/C(CC(=O)Nc1cc(C)ccn1)=N\NC(=O)c1ccncc1` yielded a cell number change of 10.9%.

For `CN1C(=O)/C(=C/c2cn(CC(=O)N3CCCCC3)c3ccccc23)NC1=S`, the cell number change was 45.9%, the AC50 [2] was 25.9 µM [rising, single point] and the AC50 [1] was 29.1 µM [rising, single point].

With `Oc1ccc(C[C@@H]2CNCCN2CCc2cccc(F)c2)cc1` the cell number change was -32.1%, the AC50 [2] was 0.103 µM [falling, full curve, poor fit] and the AC50 [1] was 0.206 µM [falling, full curve].

For `O=C(COC(=O)C1CC1)NCCc1ccc(Cl)cc1`, the cell number change was -4.02%.

For `COc1cccc(/C=N/NC(=O)CNC(=O)c2ccc(S(=O)(=O)N3CCCC3)cc2)c1OC`, the cell number change was 21.5% and the AC50 [2] was 3.66 µM [rising, single point].

With `O=C(N/N=C/c1cc(Br)c(O)c(Br)c1)c1cccc(C(F)(F)F)c1` the cell number change was -14.2% and the AC50 [2] was 6.51 µM [rising, single point].

Compound `Cc1ccc(Cl)cc1NC(=O)Cn1cc(C(F)(F)F)cc(Cl)c1=O` has a cell number change of 20.4%.

Work on `Cc1ccccc1OCC(=O)NCCCNC(=O)c1ccccn1` yielded a cell number change of 10%.

For `COc1cc2c(cc1OC)C(C)N(C(=O)c1cc3c(=O)oc4ccc(C)cc4c3s1)CC2` (stereo unspecified), the cell number change was -45.1%, the AC50 [2] was 23.1 µM [falling, single point] and the AC50 [1] was 25.9 µM [falling, single point].

With `CCc1nnc(NC(=O)CSc2nnc(COc3ccccc3)n2-c2ccc(C)cc2)s1` the cell number change was 5.53% and the AC50 [1] was 0.731 µM [falling, single point].

For `CN(C)S(=O)(=O)N1CCN(c2ccc([N+](=O)[O-])cc2)CC1`, the cell number change was -3.3%, the AC50 [2] was 0.58 µM [falling, partial curve, poor fit] and the AC50 [1] was 0.231 µM [falling, full curve, poor fit].

With `CC1(C)CC2CC(C)(CN2C(=O)COC(=O)c2cc(Cl)cc(Cl)c2N)C1` (stereo unspecified) the cell number change was -1.69% and the AC50 [1] was 18.4 µM [rising, single point].

For `Cc1ccc(-c2nc(CSc3nc4ccccc4c(=O)n3CCO)cs2)cc1`, the cell number change was 26.1% and the AC50 [1] was 14.6 µM [rising, partial curve].

With `CCC(=O)c1ccccc1OCCCN1CCC(Cc2ccccc2)CC1` the cell number change was -25.1% and the AC50 [1] was 1.84 µM [falling, partial curve].

With `O=C(CSc1ccccc1C(=O)N1CCN(c2ccccc2)CC1)N1CCCC1` the cell number change was -14.6% and the AC50 [1] was 0.0517 µM [falling, full curve, poor fit].

In the case of `Cc1cc(C)n2c(Nc3ccc4c(c3)OCCO4)c(-c3ccccc3)nc2n1`, the cell number change is reported as 54.4%, the AC50 [2] is reported as 0.411 µM [rising, full curve] and the AC50 [1] is reported as 1.3 µM [rising, full curve].

With `O=C1C2CC=CCC2C(=O)N1Cc1nnc(-c2ccccc2Br)o1` (stereo unspecified) the cell number change was 11.5% and the AC50 [1] was 2.59 µM [rising, partial curve, poor fit].

For `COc1ccc(-c2c(-c3cc(OC)cc(OC)c3)n(C)c3ccc(-c4ccc(N(C)C)nc4)cc23)cc1`, the cell number change was 9.25%, the AC50 [2] was 0.259 µM [falling, full curve, poor fit] and the AC50 [1] was 29.1 µM [rising, partial curve, poor fit].

With `CCOC(=O)c1nn(-c2ccccc2)c(C#N)c1NC(=O)c1nn(CC)cc1Br` the cell number change was 67.5%, the AC50 [2] was 0.651 µM [rising, partial curve] and the AC50 [1] was 0.651 µM [rising, partial curve, poor fit].

With `CCN(CC(=O)Nc1c(F)cccc1F)C(=O)CSCC(=O)Nc1ccc(OC)cc1` the cell number change was -16.8% and the AC50 [1] was 29.1 µM [falling, single point].

With `COc1ccccc1/C(C)=N/Oc1cc(N)cc([N+](=O)[O-])c1` the cell number change was -57.6% and the AC50 [2] was 25.9 µM [falling, partial curve, poor fit].

In the case of `COc1ccc(-n2nc(C(=O)N(C)C3CCCCC3)c3ccccc3c2=O)c(OC)c1`, the cell number change is reported as 11.3% and the AC50 [1] is reported as 14.6 µM [rising, single point].

For `Cn1nnnc1SCC(=O)Nc1ncc(Cl)cc1Cl`, the cell number change was -2.35% and the AC50 [1] was 20.6 µM [rising, single point].

`CCc1ccc(N2CC(C(=O)Nc3ccc(F)cc3)CC2=O)cc1` (stereo unspecified) showed a cell number change of -9.57%.

In the case of `CC(=O)N1CCN(C(=O)c2cccc(S(=O)(=O)NCc3ccccc3)c2)CC1`, the cell number change is reported as 28.3% and the AC50 [1] is reported as 0.731 µM [falling, single point].

In the case of `CCOC(=O)N1CCN(C(=O)c2cc3c(s2)-c2c(C)cccc2OC3)CC1`, the cell number change is reported as -91.6% and the AC50 [2] is reported as 29.1 µM [falling, single point].

Compound `CCCCCN(C(=O)CCC(=O)OC(C)C(=O)Nc1cccc(C#N)c1)c1c(N)n(CCCC)c(=O)[nH]c1=O` (stereo unspecified) has a cell number change of -80%.

In the case of `COCCN1C(=O)c2[nH]nc(-c3ccccc3O)c2C1c1ccc(OC)cc1` (stereo unspecified), the cell number change is reported as 10.1% and the AC50 [1] is reported as 2.31 µM [rising, partial curve].

In the case of `CCN(CC)CCN(C(=O)c1cc(Cl)sc1Cl)c1nc2cc3c(cc2s1)OCO3`, the AC50 [1] is reported as 35.5 µM [rising, single point].

With `N#Cc1cnn2ccc(-c3cc(N4CCOCC4)ccc3[N+](=O)[O-])nc12` the cell number change was 25.5% and the AC50 [2] was 6.51 µM [falling, single point].

With `CC(=O)Nc1cccc2ncccc12` the cell number change was 20.7% and the AC50 [1] was 18.4 µM [rising, single point].

`O=C(COC(=O)COc1ccccc1)NCc1ccccc1` gave a cell number change of -0.88%.

In the case of `COc1ccc(C(C[N+](=O)[O-])C2(c3ccc(OC)c(OC)c3)C(=O)c3ccccc3C2=O)cc1` (stereo unspecified), the cell number change is reported as -66%, the AC50 [2] is reported as 29.1 µM [falling, single point] and the AC50 [1] is reported as 6.51 µM [falling, partial curve].

In the case of `CCOC(=O)N1CCC(NC(=O)c2sc(-n3cccc3)nc2C)CC1`, the cell number change is reported as -1.28% and the AC50 [1] is reported as 0.326 µM [falling, partial curve, poor fit].

For `O=C(CCCCCN1C(=O)c2ccccc2C1=O)Nc1ccc2c(c1)OCCO2`, the AC50 [2] was 2.06 µM [rising, partial curve] and the AC50 [1] was 6.51 µM [rising, single point].

In the case of `CCOC(=O)c1c(NC(=O)CN2C(=O)C(=O)N(CC(C)C)C2=O)sc(C)c1CC`, the cell number change is reported as 118% and the AC50 [2] is reported as 20.6 µM [rising, partial curve].

`COc1ccc(CNC(=O)COC(=O)c2n[nH]c3ccccc23)cc1` gave a cell number change of -8.65%.

In the case of `Cc1c(CCOC(=O)C23CC4CC(CC(C)(C4)C2)C3)sc[n+]1CC(=O)c1ccccc1`, the cell number change is reported as -14.2% and the AC50 [1] is reported as 5.8 µM [falling, full curve, poor fit].

For `Cc1cc([N+](=O)[O-])ccc1NCc1ccccc1`, the cell number change was 19%.

With `N#Cc1nc(-c2ccc(OCc3ccccc3Cl)cc2)oc1NCCCn1ccnc1` the cell number change was -23.9% and the AC50 [1] was 0.116 µM [rising, full curve, poor fit].

In the case of `Cc1nnc(SCC(=O)NC2CCCCC2)n(N)c1=O`, the cell number change is reported as 38.1% and the AC50 [2] is reported as 9.2 µM [rising, partial curve].

In the case of `CCOC(=O)C1CCN(Cc2ccc(OCc3ccccc3)cc2)CC1`, the cell number change is reported as -7.37%.

With `Cc1ccc(C)c(S(=O)(=O)N2CCN(C(=O)Cn3c(C(F)(F)F)nc4ccccc43)CC2)c1` the AC50 [1] was 2.59 µM [rising, partial curve].

For `COc1cc([N+](=O)[O-])ccc1NC(=O)Cc1ccc(F)cc1`, the AC50 [2] was 1.46 µM [rising, partial curve] and the AC50 [1] was 0.116 µM [rising, full curve, poor fit].

With `Cc1ccc(NC(=O)CSc2nnc(Cc3cccn3C)n2-c2ccc(F)cc2)cc1` the cell number change was 8.63% and the AC50 [1] was 0.146 µM [rising, full curve, poor fit].

For `Cc1ccc(S(=O)(=O)N2[C@@H](c3ccccc3)C(C(=O)O)=CC[C@H]2c2ccc3c(c2)OCO3)cc1`, the cell number change was -19.7%.

With `Nn1cc(-c2ccccc2)nc1SCC(=O)N1CCN(S(=O)(=O)c2ccc3ccccc3c2)CC1` the AC50 [2] was 0.82 µM [rising, partial curve, poor fit].

For `COc1ccc(Nc2cc(C)nc3ccccc23)cc1`, the cell number change was 1.98% and the AC50 [1] was 16.4 µM [falling, partial curve, poor fit].

For `COc1ccc(N2C(=O)C3CCCN3C2c2cc(OC)c(OC)cc2OC)cc1` (stereo unspecified), the cell number change was 2.03%.

`CC1CC(C)CN(C(=O)CCNC(=O)Cn2cnc3ccccc3c2=O)C1` (stereo unspecified) showed a cell number change of -1.25%.

With `C/C(=N\NC(=O)c1ccn(C)n1)c1ccc(NC(=O)c2cccc(F)c2)cc1` the cell number change was -6.39% and the AC50 [1] was 0.00517 µM [rising, full curve, poor fit].

With `Cc1ccc(C(=O)N2CCCCC2C(=O)O)o1` (stereo unspecified) the cell number change was -8.01% and the AC50 [1] was 0.82 µM [falling, full curve].

With `COCC(C)NC(=O)c1noc2c1CCc1cc(OC)ccc1-2` (stereo unspecified) the cell number change was 4.99% and the AC50 [1] was 0.82 µM [rising, partial curve].

With `CS(=O)(=O)N(CC(=O)NC1CC1)C1CCCCC1` the cell number change was -2.04% and the AC50 [1] was 0.00411 µM [rising, full curve, poor fit].

For `COc1cc(C(=O)OCC(=O)N2CCCC2)cc2c1OCCO2`, the cell number change was 2.67% and the AC50 [1] was 20.6 µM [rising, single point].

In the case of `COc1cccc(CCNC(=O)CCc2nnc(Cc3cc(OC)ccc3OC)o2)c1`, the cell number change is reported as -12% and the AC50 [1] is reported as 14.6 µM [falling, single point].
